Among all 340,000 compounds or so, about 4,500 (1.3%) were called active. The inconclusive results got no clear call from the source; some entries with a clear call stand among them for comparison. The call rests on the fitted dose curve; in most records, active means well fitted inhibition curve with a large enough effect; inconclusive means small, poorly fitted or top-dose-only effect, or another doubt; inactive means no such curve, though single readings can be large or run the other way. Where the call is inconclusive, the potency comes from a doubtful curve fit.
target: DNA polymerase beta (Homo sapiens) (UniProt P06746); experiment: qHTS Assay for Inhibitors of DNA Polymerase Beta; details: Pol beta primer extension/strand displacement, fluorescence kinetic; activity change, negative = inhibition: at 114 µM (top of the series)
In short: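 Kinetic readout of DNA synthesis with strand displacement by Pol beta. Compound and 10 nM enzyme sit 15 min at room temperature; 50 nM substrate starts the reaction, read immediately and at 10 min.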
On the % scale 0 is the no-effect control and ±100 the full control effect; potency means the concentration at half of the fitted maximal effect.

SMILES	Potency	activity change, negative = inhibition
CC(C)(C)NC(=O)c1cc(F)c(F)cc1Cl	active: 89.1 µM	–
N#C/C(=C\c1ccco1)Sc1nc2ccccc2s1	inconclusive: 50.1 µM [inhibitor, partial curve]	–
COc1ccccc1NC(=O)NC1CCS(=O)(=O)C1 (centres undefined)	inconclusive: 0.199 µM [inhibitor, full curve]	–
CC(=O)N1CCCc2cc(S(=O)(=O)N(C)CC(=O)Nc3ccc(C(C)C)cc3)ccc21	–	inactive: -1.8%
CC(NC(=O)C1CCC(CNS(=O)(=O)c2ccccc2)CC1)c1ccccc1 (centres undefined)	inconclusive: 25.1 µM [inhibitor, single point]	–
Cn1cc(-c2cc3n(n2)CCC(=O)N3CCCC(=O)Nc2ccc(Cl)cc2)c2ccccc21	inconclusive: 56.2 µM [inhibitor, partial curve]	–
Cc1ccc(-n2c(O)cnc2Nc2nc(C)cc(C)n2)cc1	inconclusive: 6.31 µM [inhibitor, partial curve]	–
O=C(CSc1nc(-c2ccccc2)c(-c2ccccc2)o1)NCCCO	inconclusive: 0.141 µM [inhibitor, partial curve, poor fit]	–
Cc1nc(-c2ccccc2)nc2[nH]ccc(=O)c12	inconclusive: 0.141 µM [inhibitor, full curve, poor fit]	–
COc1ccc(C)c2sc(NC(=O)c3ccc(S(=O)(=O)N4CCOCC4)cc3)nc12	–	inactive: 0.808%
COc1ccc(C2Nc3ccccc3-c3cc(C)nn32)c(OC)c1 (centres undefined)	inconclusive: 89.1 µM [inhibitor, single point]	–
COC(=O)c1cc(F)c(-n2cncn2)c(F)c1	inconclusive: 1.58 µM [inhibitor, full curve, poor fit]	–
CCCCN1C(=O)C(O)(CC(=O)c2ccc(CC)cc2)c2cc(Br)ccc21 (centres undefined)	–	inactive: -17.3%
CCC(=O)c1c(OCc2ccccc2)ccc2c(C)cc(=O)oc12	inconclusive: 79.4 µM [inhibitor, single point]	–
COc1cc(/C=C2/C(=O)NN(c3cccc(Cl)c3)C2=O)cc(OC)c1O	inconclusive: 50.1 µM [inhibitor, partial curve]	–
CCC(C)(C)C1CCC(=NNC(=O)c2ccoc2C)CC1 (centres undefined)	inconclusive: 89.1 µM [inhibitor, single point]	–
Cc1cc(NCc2ccncc2)ccc1Br	inconclusive: 100 µM [inhibitor, single point]	–
CCc1nnc(NC(=O)c2sc3nc(C)cc(COC)c3c2N)s1	–	inactive: -0.594%
COc1cc(CN2CCCCCC2)cc(OC)c1OC	inconclusive: 39.8 µM [inhibitor, single point]	–
CC1=C(C(=O)Nc2ccccc2)C(c2ccccn2)n2nc(SCc3ccccc3)nc2N1 (centres undefined)	–	inactive: -11%
CC(NC(=O)c1cc(-c2ccccn2)nc2ccc(Cl)cc12)C1CCCO1 (centres undefined)	inconclusive: 63.1 µM [inhibitor, single point]	–
CCOCCCNC(=O)C(c1ccc(C)cc1)N(Cc1ccc2c(c1)OCO2)C(=O)c1ccccc1O (centres undefined)	–	inactive: -2.7%
COc1ccc(NC(=O)c2cc(-c3cc(Cl)ccc3O)n[nH]2)c(OC)c1	inconclusive: 63.1 µM [inhibitor, single point]	–

A few values from the entries so far:
`Cc1nc(-c2ccccc2)nc2[nH]ccc(=O)c12` | Potency: inconclusive: 0.141 µM [inhibitor, full curve, poor fit]
`CCOCCCNC(=O)C(c1ccc(C)cc1)N(Cc1ccc2c(c1)OCO2)C(=O)c1ccccc1O` (centres undefined) | activity change, negative = inhibition: inactive: -2.7%
`N#C/C(=C\c1ccco1)Sc1nc2ccccc2s1` | Potency: inconclusive: 50.1 µM [inhibitor, partial curve]
`CC(NC(=O)c1cc(-c2ccccn2)nc2ccc(Cl)cc12)C1CCCO1` (centres undefined) | Potency: inconclusive: 63.1 µM [inhibitor, single point]
`O=C(CSc1nc(-c2ccccc2)c(-c2ccccc2)o1)NCCCO` | Potency: inconclusive: 0.141 µM [inhibitor, partial curve, poor fit]
`COc1ccc(NC(=O)c2cc(-c3cc(Cl)ccc3O)n[nH]2)c(OC)c1` | Potency: inconclusive: 63.1 µM [inhibitor, single point]

Continuation:

SMILES	Potency	activity change, negative = inhibition
Cc1cc(/C=N/NC(=O)C(O)(c2ccccc2)c2ccccc2)c(C)n1-c1ccc(C(=O)O)cc1	inconclusive: 11.2 µM [inhibitor, full curve, poor fit]	–
NC(=O)c1ccc(N=Cc2ccc([N+](=O)[O-])s2)cc1	inconclusive: 11.2 µM [inhibitor, full curve]	–
COC(=O)[C@H]1[C@H]2C[C@@H]3c4[nH]c5cc(OC)ccc5c4CCN3C[C@H]2C[C@@H](OC(=O)c2cc(OC)c(OC)c(OC)c2)[C@@H]1OC	inconclusive: 31.6 µM [inhibitor, partial curve]	–
O=C1CC(NNC(=O)c2ccc(Br)cc2)C(=O)N1 (centres undefined)	–	inactive: 10.6%
O=C(CN(C1CCCCC1)C1CCCCC1)N1CCc2ccccc2C1	inconclusive: 22.4 µM [inhibitor, partial curve, poor fit]	–
NC(=S)N/N=C/c1coc2ccc(Br)cc2c1=O	–	inactive: 12.1%
Cc1ccc(S(=O)(=O)Nc2cc(=O)[nH]c(SCC(=O)Nc3cccc(C)c3)n2)cc1	–	inactive: -2.41%
CC(=O)NC1=NC(=O)/C(=C/c2cc(C)n(-c3cccc(C(=O)O)c3)c2C)S1	active: 6.31 µM	–
O=C(NNc1nc2c(F)cccc2s1)c1cc(=O)c2ccccc2o1	inconclusive: 50.1 µM [inhibitor, partial curve]	–
Cn1c2ccccc2c(=O)c2c(=O)n(Cc3ccco3)c(COc3ccccc3)nc21	–	inactive: -7.71%
CCc1ccc(C(=O)c2oc3nc(C)cc(C)c3c2N)cc1	inconclusive: 0.158 µM [inhibitor, full curve, poor fit]	–
COc1ccccc1NC(=O)CCSc1nnc(-c2ccncc2)o1	inconclusive: 25.1 µM [inhibitor, partial curve, poor fit]	–
COc1ccccc1N1CCN(C(=O)C(C)CS(=O)(=O)c2ccc3c(c2)NC(=O)CS3)CC1 (centres undefined)	active: 8.91 µM	–
O=C(CSc1nc2c([nH]c3ccccc32)c(=O)n1-c1ccccc1)Nc1cccc(C(F)(F)F)c1	–	inactive: 11.5%
CC(=O)c1ccc(-c2ccc(/C=C(/Sc3n[nH]c(C)n3)C(=O)O)o2)cc1	inconclusive: 56.2 µM [inhibitor, single point]	–
Nc1ccc(O)c2c1C(=O)c1ccccc1C2=O	active: 2.82 µM	–
O=C(/C=C/c1ccco1)Nc1ccc(-c2nc3ccccc3[nH]2)cc1	inconclusive: 3.98 µM [inhibitor, partial curve, poor fit]	–
COC(=O)c1ccc(N/N=C/c2cc([N+](=O)[O-])cc(OC)c2O)cc1	inconclusive: 3.16 µM [inhibitor, full curve]	–
NC(=O)c1cc(C(=O)c2ccccc2Cl)c[nH]1	inconclusive: 0.158 µM [inhibitor, full curve, poor fit]	–
C=CCc1ccc(O)c(-c2ccc(O)c(CC=C)c2)c1	inconclusive: 35.5 µM [inhibitor, full curve]	–
O=C(COC(=O)CCSc1ccccc1Cl)NCc1ccco1	–	inconclusive: -33.4% [inhibitor]
CC(=O)c1ccc(NC(=O)CSc2ccsc2[N+](=O)[O-])cc1	active: 5.62 µM	–
COCCn1c(C)cc(O)c(C(c2ccccc2)N2CCN(c3ccccc3F)CC2)c1=O (centres undefined)	–	inactive: 26.6%

SMILES	Potency	activity change, negative = inhibition
O=C(CCCCCn1c(=S)[nH]c2cc3c(cc2c1=O)OCO3)N1CCN(C(=O)c2ccco2)CC1	inconclusive: 28.2 µM [inhibitor, full curve]	–
CN(C)c1cc(-c2ccc(Br)cc2)oc(=O)c1Cl	inconclusive: 10 µM [inhibitor, full curve]	–
COc1cccc(NC(=O)CSc2cc(C)c3ccccc3n2)c1	–	inactive: -1.03%
CC(=O)C1=C(O)C(=O)N(Cc2ccccc2)C1c1ccco1 (centres undefined)	inconclusive: 0.891 µM [inhibitor, full curve, poor fit]	–
CN(/N=C/c1ccc(O)cc1O)c1nc(-c2ccccc2)cc(-c2ccccc2)n1	–	inactive: 22%
CC(C)(C)c1nnc(NC(=O)CCS(=O)(=O)c2ccccc2)s1	–	inactive: -8.91%
Cc1cccc(-n2cc(CNCCc3nc(C)cc(C)n3)c(-c3cccc(F)c3)n2)c1	inconclusive: 63.1 µM [inhibitor, single point]	–
COc1ccc(Br)cc1C(=O)Nc1ccc(C(=O)O)cc1	inconclusive: 56.2 µM [inhibitor, single point]	–
Cc1ccc(NC(=O)c2ccc(-n3cncn3)c([N+](=O)[O-])c2)cc1	inconclusive: 89.1 µM [inhibitor, single point]	–
Nc1c(O)ccc2c1C(=O)c1ccccc1C2=O	active: 50.1 µM	–
COc1ccc(NC(=O)/C=C/c2ccco2)cn1	inconclusive: 20 µM [inhibitor, partial curve]	–
CC1(C)Cc2nc(Cl)c(C(=O)O)cc2CO1	inconclusive: 50.1 µM [inhibitor, partial curve, poor fit]	–
O=C(O)c1cccc(NC(=O)c2cn(-c3ccccc3)nc2-c2cc3ccccc3o2)c1	inconclusive: 89.1 µM [inhibitor, single point]	–
O=c1[nH]c(CSc2nc3ccccc3s2)nc2cc(Cl)ccc12	inconclusive: 79.4 µM [inhibitor, single point]	–
CCCC(=O)NC1CC(=O)N(c2ccc3c(c2)OCCO3)C1 (centres undefined)	inconclusive: 89.1 µM [inhibitor, single point]	–
COc1cccc(CNC(=O)c2csc3c2CCCC3)c1	inconclusive: 70.8 µM [inhibitor, partial curve, poor fit]	–
COc1ccc(N=C2NC(=O)/C(=C\c3ccco3)S2)cc1	active: 20 µM	–
Cc1cccc(NC(=O)C(c2ccccc2Cl)N2CCOCC2)c1 (centres undefined)	inconclusive: 89.1 µM [inhibitor, single point]	–
CCOc1ncnc2c1sc1nc(C)cc(C)c12	inconclusive: 63.1 µM [inhibitor, partial curve, poor fit]	–
Nc1cc2nsnc2cc1Br	inconclusive: 6.31 µM [inhibitor, full curve]	–
O=c1c(-c2ccc(O)cc2)coc2cc(O)cc(O)c12	inconclusive: 89.1 µM [inhibitor, single point]	–
CN=C(NC(=O)Nc1c(C)cccc1C)NC(=O)Nc1c(C)cccc1C	inconclusive: 8.91 µM [inhibitor, partial curve, poor fit]	–
CCOCCn1ccc2c(OCC(=O)Nc3cc(C(F)(F)F)ccc3Cl)cccc2c1=O	inconclusive: 39.8 µM [inhibitor, partial curve]	–

Reference: PubChem BioAssay AID485314 (National Center for Advancing Translational Sciences (NCATS), 2010)
